Measured values from PMC11700603.
Positions count from the first letter of the chain named. Like-named read-outs stand apart in the source and are kept apart here. No constants are given. Whether binding was seen depends on the method and setting. In cells and extracts the contact can be indirect. Some entries that bind do so weakly or less than the wild type. For some assays here: Where a sequence is shown, tags or fusion partners need not be part of it. Values belong to the molecule of their own block, whether it stands above or below them.

Amino acid sequences for entries named in this document (tags omitted).
UniProt Q09472: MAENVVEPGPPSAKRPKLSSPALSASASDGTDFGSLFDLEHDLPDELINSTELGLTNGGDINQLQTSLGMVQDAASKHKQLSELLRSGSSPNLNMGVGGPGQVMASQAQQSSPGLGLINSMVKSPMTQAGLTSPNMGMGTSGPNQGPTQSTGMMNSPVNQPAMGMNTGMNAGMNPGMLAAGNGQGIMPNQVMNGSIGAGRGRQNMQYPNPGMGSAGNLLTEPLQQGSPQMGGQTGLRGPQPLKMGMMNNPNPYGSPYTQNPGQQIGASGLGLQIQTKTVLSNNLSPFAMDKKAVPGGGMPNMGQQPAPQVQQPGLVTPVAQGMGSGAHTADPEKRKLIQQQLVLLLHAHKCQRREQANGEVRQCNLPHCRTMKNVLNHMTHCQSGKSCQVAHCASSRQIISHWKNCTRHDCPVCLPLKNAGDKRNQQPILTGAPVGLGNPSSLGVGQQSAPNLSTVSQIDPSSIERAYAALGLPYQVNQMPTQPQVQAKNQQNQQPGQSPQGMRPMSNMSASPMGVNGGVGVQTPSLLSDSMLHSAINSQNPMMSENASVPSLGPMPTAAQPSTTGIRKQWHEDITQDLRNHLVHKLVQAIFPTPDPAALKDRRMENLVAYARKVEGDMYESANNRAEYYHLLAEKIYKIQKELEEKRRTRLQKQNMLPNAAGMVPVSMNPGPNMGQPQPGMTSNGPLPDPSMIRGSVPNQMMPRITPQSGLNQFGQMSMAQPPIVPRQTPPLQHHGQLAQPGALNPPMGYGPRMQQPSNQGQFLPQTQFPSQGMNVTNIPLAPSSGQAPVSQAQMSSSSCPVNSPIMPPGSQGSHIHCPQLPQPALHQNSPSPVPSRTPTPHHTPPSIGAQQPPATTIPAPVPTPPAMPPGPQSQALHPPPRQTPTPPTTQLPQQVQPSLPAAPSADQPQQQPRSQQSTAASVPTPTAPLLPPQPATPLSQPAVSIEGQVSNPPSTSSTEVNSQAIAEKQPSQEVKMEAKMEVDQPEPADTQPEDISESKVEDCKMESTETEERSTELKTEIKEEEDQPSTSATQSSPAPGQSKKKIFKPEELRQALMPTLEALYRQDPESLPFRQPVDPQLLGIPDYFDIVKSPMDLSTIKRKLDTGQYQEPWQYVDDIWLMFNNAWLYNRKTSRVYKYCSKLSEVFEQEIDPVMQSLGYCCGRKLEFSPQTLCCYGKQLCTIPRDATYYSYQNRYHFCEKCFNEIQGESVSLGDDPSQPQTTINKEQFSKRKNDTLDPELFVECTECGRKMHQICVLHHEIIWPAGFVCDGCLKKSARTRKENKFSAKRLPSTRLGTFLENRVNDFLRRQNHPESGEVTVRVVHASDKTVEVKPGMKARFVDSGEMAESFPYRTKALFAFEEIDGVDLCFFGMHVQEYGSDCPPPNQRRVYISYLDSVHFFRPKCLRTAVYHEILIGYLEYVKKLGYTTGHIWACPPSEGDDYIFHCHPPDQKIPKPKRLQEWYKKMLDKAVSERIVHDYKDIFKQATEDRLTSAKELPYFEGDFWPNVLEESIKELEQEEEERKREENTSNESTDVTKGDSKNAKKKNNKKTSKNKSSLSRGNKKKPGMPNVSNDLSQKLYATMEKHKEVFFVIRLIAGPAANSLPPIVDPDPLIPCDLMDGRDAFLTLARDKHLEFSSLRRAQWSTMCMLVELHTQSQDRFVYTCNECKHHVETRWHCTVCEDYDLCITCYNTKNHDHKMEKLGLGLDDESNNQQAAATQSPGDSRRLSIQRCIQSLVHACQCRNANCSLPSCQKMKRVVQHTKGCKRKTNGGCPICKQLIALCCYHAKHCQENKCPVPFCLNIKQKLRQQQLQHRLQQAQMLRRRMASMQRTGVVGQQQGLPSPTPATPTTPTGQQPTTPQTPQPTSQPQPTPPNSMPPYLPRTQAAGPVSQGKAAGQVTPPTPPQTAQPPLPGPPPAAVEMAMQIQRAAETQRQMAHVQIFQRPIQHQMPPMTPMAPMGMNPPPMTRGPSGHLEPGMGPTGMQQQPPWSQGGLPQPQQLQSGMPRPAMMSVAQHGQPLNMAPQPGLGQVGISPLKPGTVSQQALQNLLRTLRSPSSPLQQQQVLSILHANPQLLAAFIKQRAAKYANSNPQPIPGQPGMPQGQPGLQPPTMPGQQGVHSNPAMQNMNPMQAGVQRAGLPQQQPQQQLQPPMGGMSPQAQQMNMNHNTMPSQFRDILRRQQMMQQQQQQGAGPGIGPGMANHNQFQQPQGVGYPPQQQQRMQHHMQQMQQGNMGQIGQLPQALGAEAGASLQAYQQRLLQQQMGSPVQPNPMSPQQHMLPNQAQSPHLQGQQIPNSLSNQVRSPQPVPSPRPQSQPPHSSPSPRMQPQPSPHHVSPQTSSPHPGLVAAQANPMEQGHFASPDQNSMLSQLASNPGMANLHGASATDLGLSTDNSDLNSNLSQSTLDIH

Columns and labels:
[1] = molecular target: T1, pyruvate dehydrogenase complex component X (PDHX), endogenous in HepG2 cells (human (endogenous in HepG2)) (UniProt O00330); experiment: co-IP; endogenous IP with anti-PDHX antibody or IgG from HepG2 cells, immunoblotting (Fig. 2C; Fig. 3M: cells with NTC or p300 shRNA, further with Flag-EV or Flag-p300-HAT)
T1 sequence: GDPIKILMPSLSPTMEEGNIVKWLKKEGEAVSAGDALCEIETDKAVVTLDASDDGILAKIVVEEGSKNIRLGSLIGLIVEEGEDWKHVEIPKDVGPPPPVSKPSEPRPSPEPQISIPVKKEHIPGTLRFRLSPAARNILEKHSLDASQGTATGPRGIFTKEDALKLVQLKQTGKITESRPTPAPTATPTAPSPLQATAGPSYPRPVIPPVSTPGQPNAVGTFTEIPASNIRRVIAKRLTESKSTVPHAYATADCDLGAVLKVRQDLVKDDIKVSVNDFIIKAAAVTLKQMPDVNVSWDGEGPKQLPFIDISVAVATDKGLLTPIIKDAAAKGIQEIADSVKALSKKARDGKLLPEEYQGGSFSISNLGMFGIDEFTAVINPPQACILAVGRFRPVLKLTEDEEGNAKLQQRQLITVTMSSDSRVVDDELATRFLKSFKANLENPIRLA

[2] = molecular target: T2, GST-PDHX WT, purified from E. coli (UniProt O00330); experiment: pull-down; GST-PDHX WT, K488R and K488Q purified from E. coli, pull-down of DLAT (Fig. 3F); source of DLAT not told
T2 sequence: T1 sequence

[3] = molecular target: T3, GST-PDHX K488R, purified from E. coli (UniProt O00330); experiment: as above
T3 sequence: T1 sequence with K435R

[4] = molecular target: T4, Flag-PDHX-WT, in THLE3 cells (UniProt O00330); experiment: co-IP; IP with anti-Flag antibody or IgG from THLE3 cells overexpressing Flag-PDHX-WT (Fig. 3G)
T4 sequence: T1 sequence

[5] = molecular target: T1, pyruvate dehydrogenase complex component X (PDHX), endogenous in HepG2 cells (human (endogenous in HepG2)); experiment: co-IP; endogenous IP with anti-PDHX antibody or IgG from HepG2 cells, immunoblotting (Fig. 2C; Fig. 3M: cells with NTC or p300 shRNA, further with Flag-EV or Flag-p300-HAT); remark: listed apart in the source
[6] = molecular target: T5, Flag-PDHX-WT, in HepG2 cells (UniProt O00330); experiment: co-IP; IP with anti-Flag antibody or IgG from HepG2 cells expressing Flag-PDHX-WT, -K488R, -K488Q or -Δ488; immunoblotting of DLAT and DLD (Fig. 3E, 3G, 3J; Fig. 3K with NTC or shp300; Fig. S3C with C646)
T5 sequence: T1 sequence

[7] = molecular target: T6, Flag-PDHX-K488R, in HepG2 cells (UniProt O00330); experiment: as above
T6 sequence: T1 sequence with K435R

[8] = molecular target: T7, Flag-PDHX-WT, in HEK293T cells (UniProt O00330); experiment: co-IP; IP with anti-Flag antibody or IgG from HEK293T cells transfected with Flag-tagged PDHX-WT, N-terminal, C-terminal and C-terminal with K488R mutation (Fig. 3I)
T7 sequence: T1 sequence

B1: DLAT used in the GST pull-down with GST-PDHX (enzyme, UniProt P10515 87-647)
chain: SLPPHQKVPLPSLSPTMQAGTIARWEKKEGDKINEGDLIAEVETDKATVGFESLEECYMAKILVAEGTRDVPIGAIICITVGKPEDIEAFKNYTLDSSAAPTPQAAPAPTPAATASPPTPSAQAPGSSYPPHMQVLLPALSPTMTMGTVQRWEKKVGEKLSEGDLLAEIETDKATIGFEVQEEGYLAKILVPEGTRDVPLGTPLCIIVEKEADISAFADYRPTEVTDLKPQVPPPTPPPVAAVPPTPQPLAPTPSAPCPATPAGPKGRVFVSPLAKKLAVEKGIDLTQVKGTGPDGRITKKDIDSFVPSKVAPAPAAVVPPTGPGMAPVPTGVFTDIPISNIRRVIAQRLMQSKQTIPHYYLSIDVNMGEVLLVRKELNKILEGRSKISVNDFIIKASALACLKVPEANSSWMDTVIRQNHVVDVSVAVSTPAGLITPIVFNAHIKGVETIANDVVSLATKAREGKLQPHEFQGGTFTISNLGMFGIKNFSAIINPPQACILAIGASEDKLVPADNEKGFDVASMMSVTLSCDHRVVDGAVGAQWLAEFRKYLEKPITMLL
binding [2]: binds
binding [3]: binds

B4: dihydrolipoyl transacetylase (DLAT, E2), in HEK293T cells (enzyme, UniProt P10515 87-647)
chain: B1 chain
binding [8]: binds

Second part, the molecule after the results:

binding [1]: binds
Molecule: p300, endogenous in HepG2 cells (from UniProt Q09472 1-2414) (enzyme)

binding [4]: binds
B2: dihydrolipoyl transacetylase (DLAT, E2), in THLE3 cells (enzyme, UniProt P10515 87-647)
chain: B1 chain

binding [5]: binds
binding [6]: binds
binding [7]: binds
B3: dihydrolipoyl transacetylase (DLAT, E2), in HepG2 cells (enzyme, UniProt P10515 87-647)
chain: B1 chain
